Experimental findings from PMC12310822 are described below.

Negatives hold for the conditions tested. Construct, isoform or probe ends are uncertain for at least one entry. Weaker means in comparison with the reference protein, sequence or condition of that experiment.

The target in the data set is MtHAC-1(126-190), bZIP DNA-binding domain (Myceliophthora thermophila) (UniProt G2QME7). Description: EMSA. The following applies: 100 ng probe, 0-0.8 ug protein with 100 ng probe, 25 C, 30 min, binding buffer (composition and pH not given; cites earlier work), recombinant protein, residues 126-190, protein details: N-terminal Strep II, C-terminal His (pET-51b), probe letters rebuilt from the primers and the genome.

Where [1] appears, read: high affinity, shift from 0.1 ug protein.

“ACTTGGCGAACGGAGATTTCCAGGACGAAAGTCGGAACATCTCCATCCGCGGCCAACCTGAACACTTTTGTTCGTTTCCGGACCATCGACCCACGAAAACAGTGCGGTTGCTGGCACAGTCAGTACTCACAATGGCGATGGTCCAGCCCGTTCCCGCCCGATGCCCACTTGCAGCGCAACTCTCCTTCGTTCGGCGGCCCGGCGGTGTCTGGCCTATTAGTACGATTTTGGATACCGGCTTGGTCGCCGCCGCGGTTTTTCTTGGCCGATACGGGAATCTCGGTGGTCCCAACTCCACCTGGGCACGCTCTGGTGCCAACATGGAACTTCGGGATGCCGCTCCGGGCACAG (double strand) [egl2-P2]”: the binding result (weak binding) is “binds more weakly”.
Regarding “ATCATTCGATGGCTGACTGGCACACTCGTCTTGTTTGAGCATCGACGGCCCGCGGCCCGTCTCCCACGGTACGGAACCTCGTTGTACAGTACCTCTCGTAATGATACCCAACACCGGGGCCGAGCGCTGGGAGGGCGGCGTTCCCGAGAAGCCGGGAAGGCGGCTGGCCGGCTGACCTTTGTGACTTGGCGATGGATGCGGCCATGGAGAATGTCCGTCCGAAGCGACGCGACAATTAGCCTGGCTACCATCGATATAAATTGGGTGATTCCCAGCTCTTGATGGGCGTGTCTTCTGCCTGGCAGCCCTCGTCTTCAGATCAAGCAACTGTGTGCTGATCCTCTTCCGCC (double strand) [cbh1-P1]”, where the note is “weak binding”, the binding result is “binds more weakly”.
As for “ACAGACGGATTGATGCCATGCGTGATCCGAAAGCAAGCGCGGGAAGAGCCATGCTAAATATGGCGCCTCAACGCGTAATCCCGCTCGCCTAAGGTATTTGTATCGTAGCAGCGGCGCCTGCCACGACTTGGAAGATACGGTTGAAATCGGGGGGTGGGTGCCAGCCAATGTGGTATCTCTGTCTCTCTTGTGTTTTCTCCAGGTTTCCTGGCTTATCCACTTCTGAAAAGGTTGATGTCTTCTTCTTGGATCGCTGTGATCCTGAATCTATGGGAAGTTGAAGGAGACTCGAATGCGGCCGTAAATAATTACCAACGAGACAGGATGGTTAATACGGGCTGGTTAACCCAG (double strand) [xyn1-P3]”, where the note is “no retardation up to 0.8 ug protein”, the binding result is reported as “no binding”.
For the sequence “GACCGTCCTGGAATCTTCGAGGCTGGTCGGATCTGGCATGGCGCTCACACCGCTGCCGTTGCTGCGATGGAGAGTTGTATTGTCATGGGTGTGGCCCGGAGCGACAACCCAACCCGGTTCTGCGTCGGAGGGTCCTCCGTCCATGGACAAAATGGGTAGGCTAGACGACGCCAACCCCTCAGGAACCCGGAACTCGGGCCCTTCAGAATCCACTCTCAGCGGTTAGCCCCGCTGACGAACCCCTTAATCCCGGCCTGTTCGCCACGTGAGACTTTAGCCTGAATACTGCGTGCTACGATTCTGTTGCGGCTTGGCGCCCGAGACTCCAGCGGTGCAAGCCATCGAGAAGAA (double strand) [xyn1-P2]”, under setting [1], the binding result is “binds”.
The same measure, in the same setting: to “GGGGTAAGGTCAGTAGCAGGCATTAGATTTAGGGAGATGCGAGAATAGCATTGACAGACACCAAAGCGCTGGAAGCTGATCTGCGCGGATGTGGGCGAACGGGTGCCACAGTCAACTCACTGCACGGAGGATGAAGCACCAGCAGCGCATGTCGGGGTTAAGGGAAGGGGAAGGGGGGTGAAGGGGGGTGAAGGAGGGGGAAGGGGGGAGGGGTGTCTGGATGGACGAGGGACAGCGGACCGGCCGGCAAGGGGGGGCGCGGGAGAAGGAGAACGTGGAGGGCAGGGAAGAGGGAACCATCAACGTACGGGATACGGGGTCGGATGGCAAGAGAGCGCTTGGCCAGTCCTC (double strand) [xyr1-P2]” belongs “binds”.
“GTGGGAAAATCTTCTTGCGCGAGAGATTAAAGAGGCTAGGAAGCTGGGGTGCATGCTGCAGGATCGGCATTGGGTCAGTGGGACGATGCAGCTGCGGGATGGCATAGCGGTCCGGCATGAGCCCGACGTTGCTGTAAGCAGCAATCGAGTGGCCAGAGGCATGCTGGGCACGCACCAAAGCCGGGCCGGACTGCCCGTTATTGATTGGGCCGGCCAAATGTCCCGTCGTGGCAGGTGGGCCAGCCGTTTCAACCCCGCAAAACCGCTGGTCAAGGTCGACATACCAAGATCTGTAAAGGGTCTTGTGATTGTCGGGTTCGGATCTCCTCATCCCGGATGTCACGCTGAGCG (double strand) [bgl1-P2]”: the binding result (weak binding) is “binds more weakly”.
